The text below walks through data of paper PMC3254653.

No constants are given. Whether binding was seen depends on the method and setting. In cells and extracts the contact can be indirect. A result given as binding can be weak or reduced; the word gives no strength. Where a sequence is shown, tags or fusion partners need not be part of it.

The target of assay [1] is T1, Myc-Smo^SA (phosphorylation deficient form of Smo with three PKA sites mutated to Ala) (Drosophila) (UniProt P91682).
T1 sequence: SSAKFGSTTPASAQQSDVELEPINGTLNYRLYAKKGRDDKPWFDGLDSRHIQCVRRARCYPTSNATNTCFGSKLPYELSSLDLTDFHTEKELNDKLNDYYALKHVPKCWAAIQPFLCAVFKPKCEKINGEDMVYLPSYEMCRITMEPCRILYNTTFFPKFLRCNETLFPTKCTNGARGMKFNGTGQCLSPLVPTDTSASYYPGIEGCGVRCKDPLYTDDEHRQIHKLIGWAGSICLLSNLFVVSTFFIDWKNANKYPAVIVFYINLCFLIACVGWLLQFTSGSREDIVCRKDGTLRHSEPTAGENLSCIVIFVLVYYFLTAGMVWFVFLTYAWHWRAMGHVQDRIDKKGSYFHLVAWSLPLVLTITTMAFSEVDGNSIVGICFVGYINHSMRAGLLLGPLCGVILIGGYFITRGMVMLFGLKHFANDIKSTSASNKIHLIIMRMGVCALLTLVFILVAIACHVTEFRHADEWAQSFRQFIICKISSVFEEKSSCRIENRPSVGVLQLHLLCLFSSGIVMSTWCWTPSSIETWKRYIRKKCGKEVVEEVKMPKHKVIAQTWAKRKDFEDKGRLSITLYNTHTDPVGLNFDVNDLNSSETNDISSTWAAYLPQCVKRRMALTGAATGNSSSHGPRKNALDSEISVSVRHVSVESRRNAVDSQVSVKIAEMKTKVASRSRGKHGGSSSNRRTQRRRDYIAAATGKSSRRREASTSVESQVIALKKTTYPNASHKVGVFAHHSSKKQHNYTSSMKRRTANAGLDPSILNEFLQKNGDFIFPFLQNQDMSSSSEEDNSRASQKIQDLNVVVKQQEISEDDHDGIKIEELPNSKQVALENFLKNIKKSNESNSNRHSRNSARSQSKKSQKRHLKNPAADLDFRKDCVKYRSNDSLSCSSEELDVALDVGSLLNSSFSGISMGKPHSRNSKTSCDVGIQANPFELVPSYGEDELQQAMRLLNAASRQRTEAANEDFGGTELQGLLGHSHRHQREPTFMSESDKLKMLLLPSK
The assay can be described thus: co-IP; S2 cells transfected with Fg-UBPY and Myc-tagged wild type Smo or Smo variants, treated with or without Hh-conditioned medium; Myc-Smo as bait, Western blot of lysates and immunoprecipitates. A general note: A western blot detects proteins with antibodies after separation by electrophoresis.

The target of assay [2] is T2, Myc-tagged wild type Smoothened (Myc-Smo) (Drosophila) (UniProt P91682).
T2 sequence: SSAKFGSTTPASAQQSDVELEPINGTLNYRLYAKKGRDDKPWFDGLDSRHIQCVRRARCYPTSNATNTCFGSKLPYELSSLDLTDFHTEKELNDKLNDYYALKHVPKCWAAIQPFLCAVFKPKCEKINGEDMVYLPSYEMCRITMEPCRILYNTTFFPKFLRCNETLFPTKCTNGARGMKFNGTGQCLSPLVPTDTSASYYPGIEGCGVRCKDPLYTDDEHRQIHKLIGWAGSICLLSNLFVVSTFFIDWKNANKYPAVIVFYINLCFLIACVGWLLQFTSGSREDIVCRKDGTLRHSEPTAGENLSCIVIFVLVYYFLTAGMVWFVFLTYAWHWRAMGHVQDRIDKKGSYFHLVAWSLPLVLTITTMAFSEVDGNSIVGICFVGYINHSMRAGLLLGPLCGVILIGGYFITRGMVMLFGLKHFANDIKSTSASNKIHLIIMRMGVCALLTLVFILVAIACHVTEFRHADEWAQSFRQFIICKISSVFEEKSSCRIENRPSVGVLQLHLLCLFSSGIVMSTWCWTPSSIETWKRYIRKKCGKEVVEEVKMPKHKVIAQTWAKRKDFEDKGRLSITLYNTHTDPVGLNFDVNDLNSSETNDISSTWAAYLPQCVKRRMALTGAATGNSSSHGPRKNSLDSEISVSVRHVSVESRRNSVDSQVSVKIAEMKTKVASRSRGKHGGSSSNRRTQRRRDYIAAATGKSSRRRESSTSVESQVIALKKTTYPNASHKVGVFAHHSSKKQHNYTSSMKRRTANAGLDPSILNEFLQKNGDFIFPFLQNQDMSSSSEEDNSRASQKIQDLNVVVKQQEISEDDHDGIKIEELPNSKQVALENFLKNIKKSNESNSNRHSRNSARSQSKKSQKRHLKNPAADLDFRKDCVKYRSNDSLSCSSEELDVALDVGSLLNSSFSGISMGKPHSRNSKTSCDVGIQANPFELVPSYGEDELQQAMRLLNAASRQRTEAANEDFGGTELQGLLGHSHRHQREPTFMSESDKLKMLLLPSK
Described as above.

Assay [3] addresses Myc-Smo^CT (a Smo variant only containing its C-tail) (Drosophila). Kind of assay: co-IP; S2 cells transfected with Krz-YFP and Myc-tagged wild type Smo or Smo variants, treated with or without Hh-conditioned medium; Myc-Smo as bait, Western blot of lysates and immunoprecipitates.
Assay [4] has as its target Myc-Smo^SD (phospho-mimetic form of Smo with three PKA/CK1 clusters mutated to Asp) (Drosophila) (UniProt P91682). The description is as above.

“flag-tagged UBPY (Fg-UBPY) (Drosophila) (enzyme)”: the binding result in assay [1] and in assay [2] was “binds” throughout.

B1: C-terminally YFP-tagged Kurtz (Krz-YFP) (protein, UniProt Q9V393 1-470)
chain: MNGGGGGSGGANVSNGSSTNVTAAGSTGGGSAGDETGGDASSRRQATRVFKKSSSNGKITVYLGKRDFVDHVTHVDPIDGVVFIDPEYVKDRKVFGQVLAAFRYGREDLDVLGLTFRKDLYLAHEQIYPPMQLDRPMTRLQERLIKKLGPNAHPFYFEVPPYCPASVSLQPAPGDVGKSCGVDYELKAFVGENVEDKPHKRNSVRLTIRKVMYAPSKVGEQPSIEVSKEFMMKPNKIHLEATLDKELYHHGEKISVNVHVANNSNRTVKKIKVCVRQFADICLFSTAQYKSVVAEIESEDGCQVAPGFTLSKVFELCPLLANNKDKWGLALDGQLKHEDTNLASSTLITNPAQRESLGIMVHYKVKVKLLISSPLLNGDLVAELPFTLMHPKPEEEEHPLLGERSPRASLAGGGLPLVSMSDGETESATGGQDVPTTTNLIQLDDDEAQDDDIIFEDFARLRLKGAETEA
On to B1, for which the binding entry in assay [3] and in assay [4] was “binds” each time.
